According to PubChem BioAssay (NCATS):
This list was built around the results that the source calls inconclusive (neither active nor inactive); the mix of calls is not that of the screen. A potency beside an inconclusive call is a rough fit, not a confirmed value. Calls of active or inactive are those of the source. Calls follow the shape of the dose curve; as a rule, active = well fitted inhibition curve with a large enough effect; inconclusive = small, poorly fitted or top-dose-only effect; inactive = no such curve, though single readings can be large or run the other way.

The compounds below were run against Aldehyde dehydrogenase 1A1 (Homo sapiens) (UniProt P00352) (assay: qHTS for Inhibitors of the Aldehyde Dehydrogenase Family (ALDH1A1) Confirmatory screens (AID 2061316; also: nearly all actives have a fitted effect of over 65% in size)). Details: ALDH inhibition qHTS; activity change, negative = inhibition: at 47.3 µM (top of the series); series mostly up to 47.3 µM.
% is scaled to controls: 0 for no effect and ±100 for the full control effect; potency is read from the fitted curve at half-maximal effect.

Row | Structure (SMILES) | Potency | activity change, negative = inhibition
1 | O=C(NCCN1CCN(c2ccccc2)CC1)Nc1cccc(Br)c1 | inconclusive: 18.2 µM [inhibitor, partial curve] | –
2 | CCn1cc2nc(SCc3ccc(F)cc3)n(CCc3ccccc3)c(=O)c2n1 | – | inactive: -22%
3 | COC(=O)c1ccc(OC(CO)C(O)c2ccc(O)c(OC)c2)c(OC)c1 (configuration not stated) | inconclusive: 17.5 µM [inhibitor, partial curve, poor fit] | –
4 | O=C(NCC(=O)N1CCN(Cc2ccccc2)CC1)c1cccc(-c2ccsc2)c1 | – | inactive: -24.9%
5 | COc1ccc(CN(Cc2ccccc2)C(=O)c2ccccc2O)cc1 | inconclusive: 17.9 µM [inhibitor, partial curve] | –
6 | CC1CCC23COC(=O)C2=CC(O)CC3C1(C)CCC1=CC(O)OC1=O (configuration not stated) | inconclusive: 7.83 µM [inhibitor, partial curve, poor fit] | –
7 | CC(=O)N1CCN(C(=S)Nc2cc(C)ccn2)CC1 | inconclusive: 12.7 µM [inhibitor, partial curve, poor fit] | –
8 | COc1cc([C@@H](O[C@@H]2O[C@H](CO)[C@@H](O)[C@H](O)[C@H]2O)[C@@H]2CO[C@H](c3ccc(O)c(OC)c3)[C@H]2CO)ccc1O | – | inactive: -20.9% [at 25.5 µM]
9 | O=C(Nc1ccc(Cl)c(Cl)c1)Nc1ccc(-c2ccncc2)s1 | active: 8.96 µM | –
10 | COc1ccc(S(=O)(=O)Nc2cc(OC)cc3cccnc23)cc1 | – | inactive: 2.65%
11 | Cc1ccc2nc(-c3ccccn3)c(Nc3ccccc3C)n2c1 | – | inactive: -5.15%
12 | O=C(OC1C=C(CO)C2C(OC3OC(CO)C(O)C(O)C3O)OC=CC12O)c1ccc(O)cc1 (configuration not stated) | inconclusive: 11 µM [inhibitor, partial curve, poor fit] | –

Some values from above:
Under activity change, negative = inhibition, COc1cc([C@@H](O[C@@H]2O[C@H](CO)[C@@H](O)[C@H](O)[C@H]2O)[C@@H]2CO[C@H](c3ccc(O)c(OC)c3)[C@H]2CO)ccc1O is entered as inactive: -20.9% [at 25.5 µM]
Under Potency, O=C(NCCN1CCN(c2ccccc2)CC1)Nc1cccc(Br)c1 is entered as inconclusive: 18.2 µM [inhibitor, partial curve]
